Here are results for one molecule from PMC6459869.

The experiment addresses EZH2 (wild type, endogenous in WT mouse ESCs) (mouse (endogenous in E14TG2a ESCs)), Q61188. The experiment in a line: co-IP; immunoprecipitation of EZH2 from 1 mg total protein extract of mouse ESC lines with homemade anti-EZH2 (AC22) cross-linked sepharose beads, 3 to 4 h at 4 °C; S300 buffer (20 mM Tris-HCl pH 8.0, 300 mM NaCl, 10% glycerol, 0.2% NP-40), 5 washes; western blot. The note with it: remark: other sources report otherwise.

These are yes or no findings as the source states them, for the method shown. Binding seen in cells or lysates may run through a third protein. Some entries that bind do so weakly or less than the wild type.

B1: SUZ12, Q80U70 1-741 (protein)
chain: MAPQKHGGGGGGGSGPSAGSGGGGFGGSAAAVAAAASGGKSGGGGCGGGGSYSASSSSAAAAAAAAGAAVLPVKKPKMEHVQADHELFLQAFEKPTQIYRFLRTRNLIAPIFLHRTLTYMSHRNSRTSIKRKTFKVDDMLSKVEKMKGEQESHSLSAHLQLTFTGFFHKNDKPSQNSENEQNSVTLEVLLVKVCHKKRKDVSCPIRQVPTGKKQVPLNPDLNQTKPGNFPSLAVSSNEFEPSNSHMVKSYSLLFRVTRPGRREFNGMINGETNENIDVSEELPARRKRNREDGEKTFVAQMTVFDKNRRLQLLDGEYEVAMQEMEECPISKKRATWETILDGKRLPPFETFSQGPTLQFTLRWTGETNDKSTAPVAKPLATRNSESLHQENKPGSVKPAQTIAVKETLTTELQTRKEKDNSNESRQKLRIFYQFLYNNNTRQQTEARDDLHCPWCTLNCRKLYSLLKHLKLCHSRFIFNYVYHPKGARIDVSINECYDGSYAGNPQDIHRQPGFAFSRNGPVKRTPITHILVCRPKRTKASMSEFLESEDGEVEQQRTYSSGHNRLYFHSDTCLPLRPQEMEVDSEDEKDPEWLREKTITQIEEFSDVNEGEKEVMKLWNLHVMKHGFIADNQMNHACMLFVENYGQKIIKKNLCRNFMLHLVSMHDFNLISIMSIDKAVTKLREMQQKLEKGESATPSNEEIAEEQNGTANGFSETNSKEKALETDGVSGVPKQSKKQKL
On to B1, for which the binding entry is given as “binds”.
